According to paper doi:10.1101/789552 (bioRxiv, 2019):
Positions count from the first letter of the chain named. Numbers in names are those of the source. Results are given in words; binding and its absence hold for the method and conditions named. For part of these data: In cells and extracts the contact can be indirect. Some entries that bind do so weakly or less than the wild type. Where a sequence is shown, tags or fusion partners need not be part of it. Each block holds one binder with its values, some of them ahead of it.

Legend:
Myc-CAP2 [1] = biological target: T1, Myc-CAP2 (UniProt Q9CYT6); experiment: co-IP
T1 sequence: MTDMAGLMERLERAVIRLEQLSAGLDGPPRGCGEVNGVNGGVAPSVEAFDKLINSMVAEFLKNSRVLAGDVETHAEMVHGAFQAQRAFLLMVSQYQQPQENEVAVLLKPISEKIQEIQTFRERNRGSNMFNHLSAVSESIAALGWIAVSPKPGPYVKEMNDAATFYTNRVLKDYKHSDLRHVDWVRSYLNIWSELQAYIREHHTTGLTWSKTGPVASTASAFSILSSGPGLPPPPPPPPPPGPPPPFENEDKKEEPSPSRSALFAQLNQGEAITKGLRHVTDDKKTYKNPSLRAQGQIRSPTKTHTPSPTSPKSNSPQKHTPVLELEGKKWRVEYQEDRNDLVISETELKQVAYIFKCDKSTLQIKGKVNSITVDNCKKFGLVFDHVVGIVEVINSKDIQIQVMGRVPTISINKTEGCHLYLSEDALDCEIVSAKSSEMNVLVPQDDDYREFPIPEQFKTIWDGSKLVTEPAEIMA

Myc-CAP2(165-476) [2] = biological target: T2, Myc-CAP2(165-476) (UniProt Q9CYT6); experiment: co-IP
T2 sequence: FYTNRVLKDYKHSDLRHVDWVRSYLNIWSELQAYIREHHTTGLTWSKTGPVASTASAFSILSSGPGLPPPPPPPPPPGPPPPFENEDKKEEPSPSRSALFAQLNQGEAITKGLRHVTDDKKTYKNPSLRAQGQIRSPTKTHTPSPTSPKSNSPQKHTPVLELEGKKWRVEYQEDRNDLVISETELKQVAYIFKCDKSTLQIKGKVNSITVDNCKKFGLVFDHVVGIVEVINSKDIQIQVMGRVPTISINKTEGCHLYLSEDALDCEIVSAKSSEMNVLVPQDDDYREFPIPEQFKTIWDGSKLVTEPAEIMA

Myc-(C32G)CAP2 [3] = biological target: T3, Myc-(C32G)CAP2 (UniProt Q9CYT6); experiment: proximity ligation
T3 sequence: T1 sequence with C32G

Myc-CAP2 [4] = biological target: T1, Myc-CAP2; experiment: proximity ligation
Streptag-(C32G)CAP2 = Streptag-(C32G)CAP2 (UniProt Q9CYT6); experiment: non-reducing SDS-PAGE with Western blot
Myc-(C32G)CAP2 [5] = biological target: T3, Myc-(C32G)CAP2; experiment: non-reducing SDS-PAGE with Western blot
Myc-CAP2(165-476) [6] = biological target: T2, Myc-CAP2(165-476); experiment: non-reducing SDS-PAGE with Western blot

B1: EGFP-CAP2 (protein, UniProt Q9CYT6 1-476)
chain: T1 sequence
- binding (Myc-CAP2 [1]): binds
- binding (Myc-CAP2(165-476) [2]): binds
- binding (Myc-(C32G)CAP2 [3]): binds
- binding (Myc-CAP2 [4]): binds

B4: EGFP-CAP2(1-311) (domain or fragment, UniProt Q9CYT6 1-311)
chain: MTDMAGLMERLERAVIRLEQLSAGLDGPPRGCGEVNGVNGGVAPSVEAFDKLINSMVAEFLKNSRVLAGDVETHAEMVHGAFQAQRAFLLMVSQYQQPQENEVAVLLKPISEKIQEIQTFRERNRGSNMFNHLSAVSESIAALGWIAVSPKPGPYVKEMNDAATFYTNRVLKDYKHSDLRHVDWVRSYLNIWSELQAYIREHHTTGLTWSKTGPVASTASAFSILSSGPGLPPPPPPPPPPGPPPPFENEDKKEEPSPSRSALFAQLNQGEAITKGLRHVTDDKKTYKNPSLRAQGQIRSPTKTHTPSPTS
- binding (Myc-CAP2 [1]): binds

B6: EGFP-CAP2(1-232) (domain or fragment, UniProt Q9CYT6 1-232)
chain: MTDMAGLMERLERAVIRLEQLSAGLDGPPRGCGEVNGVNGGVAPSVEAFDKLINSMVAEFLKNSRVLAGDVETHAEMVHGAFQAQRAFLLMVSQYQQPQENEVAVLLKPISEKIQEIQTFRERNRGSNMFNHLSAVSESIAALGWIAVSPKPGPYVKEMNDAATFYTNRVLKDYKHSDLRHVDWVRSYLNIWSELQAYIREHHTTGLTWSKTGPVASTASAFSILSSGPGLP
- binding (Myc-CAP2 [1]): binds

Results, then the binder that gave them:

- binding (Streptag-(C32G)CAP2): no binding
B2: Streptag-(C32G)CAP2 (protein, UniProt Q9CYT6 1-476)
chain: T1 sequence with C32G

- binding (Myc-(C32G)CAP2 [5]): no binding
B3: Myc-(C32G)CAP2 (protein, UniProt Q9CYT6 1-476)
chain: T1 sequence with C32G

- binding (Myc-CAP2(165-476) [6]): no binding
B5: Myc-CAP2(165-476) (domain or fragment, UniProt Q9CYT6 165-476)
chain: T2 sequence
